{
  "source": "paper PMC12040169",
  "about": "(PLOS Biology, 2025)",
  "note": "This is one part of the list.",
  "data": [
    {"system": "T1, CTL2-GFP (C. trachomatis L2/434/Bu, GFP-expressing)", "T1 construct": "L2/434/Bu, GFP-expressing", "parameters": "species or system HeLa; Intracellular C. trachomatis growth in HeLa cells, bulk GFP fluorescence relative to DMSO", "conditions": "bulk GFP, single well; 28.5 h, 10 µM; inhibitor", "units": {"% of control remaining": "%"}, "values": [
      {"compound": "Cc1ccc(S(=O)(=O)N(CC(=O)Nc2ccc3c(c2)OCCO3)Cc2ccccc2F)cc1", "note": "[CBK265157]", "% of control remaining": 103.343},
      {"compound": "CCC(C)(C)c1ccc(S(=O)(=O)Nc2ccc3ncsc3c2)cc1", "note": "[CBK043490]", "% of control remaining": 69.4145},
      {"compound": "Cc1cccc(CNCC2CCN(C(=O)OC(C)(C)C)CC2)n1", "note": "[CBK056713]", "% of control remaining": 81.6248},
      {"compound": "Nc1nc(N)nc(-c2ccc(-c3nc(N)nc(N)n3)cc2)n1", "note": "[CBK261494]", "% of control remaining": 93.0698},
      {"compound": "Cc1sc2ncnc(NCCOCCO)c2c1C", "note": "[CBK265907]", "% of control remaining": 177.004},
      {"compound": "O=S(=O)(c1ccc(F)cc1)N1CCCC1c1cccc(Cc2ccc(F)cc2)n1", "note": "(centres unmarked) [CBK286249]", "% of control remaining": 96.7859},
      {"compound": "O=[N+]([O-])c1c(N2CCN(CCO)CC2)ccc2nonc12", "note": "[CBK264397]", "% of control remaining": 107.772},
      {"compound": "N#CCCn1cc(C(=O)N2CCCCC2)c(-c2cc3ccccc3o2)n1", "note": "[CBK306206]", "% of control remaining": 150.64},
      {"compound": "Cn1cc(CCNC(=O)NC2CCN(c3ncccn3)CC2)cn1", "note": "[CBK305612]", "% of control remaining": 108.693},
      {"compound": "COc1cc(NC(=O)CCN2CCN(C)CC2)cc(OC)c1", "note": "[CBK264193]", "% of control remaining": 100},
      {"compound": "Cc1ccc(-n2c3c(cc(C(=O)NCCCN4CCOCC4)c2=O)C(=O)CCC3)cc1", "note": "[CBK266094]", "% of control remaining": 156.031},
      {"compound": "CCc1nnc(NC(=O)c2cccc(F)c2)s1", "note": "[CBK273362]", "% of control remaining": 126.592},
      {"compound": "Cc1cc(CNC(=O)N(C)C2CCN(C)C2)no1", "note": "(centres unmarked) [CBK155992]", "% of control remaining": 107.545},
      {"compound": "COc1ccc([C@@]23CC[C@@H](NC(=O)Nc4cccc(Cl)c4)C[C@@H]2CN(C)C3)cc1OC", "note": "[CBK081375T]", "% of control remaining": 118.818},
      {"compound": "Cc1cc(-c2cnoc2C2CCCN(C(=O)c3cccs3)C2)on1", "note": "(centres unmarked) [CBK284480]", "% of control remaining": 82.0694},
      {"compound": "CC(NC(=O)c1nn(-c2ccc(F)cc2)c2c1CCCC2)c1ccc2c(c1)OCCO2", "note": "(centres unmarked) [CBK296682]", "% of control remaining": 77.033},
      {"compound": "COc1ccccc1-c1ccc(CC2(C(=O)NCC3CCCCC3)CCOCC2)cc1", "note": "[CBK286519]", "% of control remaining": 101.647},
      {"compound": "O=C(O)CCNS(=O)(=O)c1ccc(I)cc1", "note": "[CBK268968]", "% of control remaining": 110.582},
      {"compound": "CCC(=O)NC(N(Cc1ccccc1)Cc1ccccc1)C(Cl)(Cl)Cl", "note": "(centres unmarked) [CBK261022]", "% of control remaining": 76.337},
      {"compound": "OCc1cccc2c3c(n(Cc4ccccc4)c12)CCCC3", "note": "[CBK004693]", "% of control remaining": 87.646},
      {"compound": "Cc1nc2ccccc2n1CC(O)COc1ccccc1", "note": "(centres unmarked) [CBK288084]", "% of control remaining": 103.539},
      {"compound": "OCCc1ccc(Nc2cc(-c3ccco3)ncn2)cc1", "note": "[CBK090771]", "% of control remaining": 174.383},
      {"compound": "NC(=O)c1ccccc1NC(=O)CN1CCN(Cc2cccc(F)c2)CC1", "note": "[CBK270292]", "% of control remaining": 148.121}
    ]}
  ]
}
